PubChem BioAssay AID504774 – Drosophila RNAi Screening Center, 2011
Purpose: 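Knock-downs that shift viability of MMS-exposed cells relative to untreated ones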 (primary screen). Cell system: Drosophila Kc167 cells. Reagents: long dsRNA against Drosophila genes, about 0.25 µg dsRNA per well. Timing: about 6 days: 3 days knock-down, then 3 days with or without MMS. Challenge: methyl methanesulphonate 0.004% (w/v) for 3 days after knock-down. Detection: 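ATP-dependent luminescence as a measure of live cells in MMS-exposed wells, quantile normalised within each plate, with replicate values also given as a mean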. Scale: mean viability with MMS and viability with MMS: higher = more surviving cells after MMS.
In all, the deposit lists about 23,000 reagents; below is a random part of those with a known target gene and a result. 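Values are quantile-normalised luminescence on an arbitrary scale; higher means more cells surviving MMS.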 Names joined by + are all predicted targets of the reagent. Not all columns of the deposit are shown.

For pcm (pacman) [DRSC20361], what does the deposit list?
mean viability with MMS: 3.55e6; viability with MMS, replicate 1: 4.15e6

Which result is listed for Yeti [DRSC21138]?
mean viability with MMS: 3.21e6; viability with MMS, replicate 1: 3.61e6

For Kul (Kuzbanian-like) [DRSC15404], how do the results read?
mean viability with MMS: 3.45e6; viability with MMS, replicate 1: 3.92e6

What is on record for Nepl15 (Neprilysin-like 15) [DRSC15630]?
mean viability with MMS: 3.38e6; viability with MMS, replicate 1: 3.81e6

For Mi-2 [DRSC11222], what was measured?
mean viability with MMS: 3.23e6; viability with MMS, replicate 1: 3.67e6

How did the screen score Cyp40 (Cyclophilin 40) [DRSC10980]?
mean viability with MMS: 3.55e6; viability with MMS, replicate 1: 4.05e6

What is on record for GluRIID (Glutamate receptor IID) [DRSC16723]?
mean viability with MMS: 3.58e6; viability with MMS, replicate 1: 4.16e6

How did the screen score CG42264 [DRSC18074]?
mean viability with MMS: 3.63e6; viability with MMS, replicate 1: 4.14e6

What is on record for CG42264 [DRSC18075]?
mean viability with MMS: 3.68e6; viability with MMS, replicate 1: 4.12e6

What is on record for CG34327 [DRSC19517]?
mean viability with MMS: 3.30e6; viability with MMS, replicate 1: 3.75e6

How did the screen score CG34327 [DRSC22380]?
mean viability with MMS: 3.49e6; viability with MMS, replicate 1: 3.83e6

With CG31680 [DRSC21878], how do the results read?
mean viability with MMS: 3.68e6; viability with MMS, replicate 1: 4.12e6

With snoRNA:Me28S-C3420b + RpS11 [DRSC07396], what was measured?
mean viability with MMS: 3.74e6; viability with MMS, replicate 1: 4.16e6

What is on record for Hmbs (Hydroxymethylbilane synthase) [DRSC08632]?
mean viability with MMS: 3.61e6; viability with MMS, replicate 1: 4.09e6

For eloF (elongase F) [DRSC15162], what was measured?
mean viability with MMS: 3.51e6; viability with MMS, replicate 1: 4.06e6

For Lipt2 (Lipoyl(octanoyl) transferase 2) [DRSC12338], how do the results read?
mean viability with MMS: 3.53e6; viability with MMS, replicate 1: 3.94e6

For Lipt2 (Lipoyl(octanoyl) transferase 2) [DRSC22610], what was measured?
mean viability with MMS: 3.55e6; viability with MMS, replicate 1: 4.04e6

What is on record for Gmd (GDP-mannose 4,6-dehydratase) [DRSC03119]?
mean viability with MMS: 3.83e6; viability with MMS, replicate 1: 4.47e6

What did the screen give for CG4744 [DRSC06887]?
mean viability with MMS: 3.50e6; viability with MMS, replicate 1: 3.97e6

Which result is listed for CG9953 [DRSC11106]?
mean viability with MMS: 3.44e6; viability with MMS, replicate 1: 3.90e6

For CG30022 [DRSC22405], what does the deposit list?
mean viability with MMS: 3.57e6; viability with MMS, replicate 1: 4.08e6

For CG16953 [DRSC15167], what was measured?
mean viability with MMS: 3.51e6; viability with MMS, replicate 1: 3.97e6

Targets listed so far whose target name begins with L or l:
Lipt2 (Lipoyl(octanoyl) transferase 2) [DRSC12338] → mean viability with MMS: 3.53e6; viability with MMS, replicate 1: 3.94e6
Lipt2 (Lipoyl(octanoyl) transferase 2) [DRSC22610] → mean viability with MMS: 3.55e6; viability with MMS, replicate 1: 4.04e6

The results go on.
With Nlg1 (Neuroligin 1) [DRSC12485], how do the results read?
mean viability with MMS: 3.51e6; viability with MMS, replicate 1: 3.82e6

What did the screen give for Nlg1 (Neuroligin 1) [DRSC12532]?
mean viability with MMS: 3.63e6; viability with MMS, replicate 1: 4.20e6

What did the screen give for Nlg1 (Neuroligin 1) [DRSC12533]?
mean viability with MMS: 3.69e6; viability with MMS, replicate 1: 4.11e6

With Nlg1 (Neuroligin 1) [DRSC12539], what was measured?
mean viability with MMS: 3.64e6; viability with MMS, replicate 1: 4.22e6

For CG15096 [DRSC06525], how do the results read?
mean viability with MMS: 3.48e6; viability with MMS, replicate 1: 3.96e6

With CG10418 [DRSC09720], what was measured?
mean viability with MMS: 3.40e6; viability with MMS, replicate 1: 3.79e6

What did the screen give for His2B:CG33894 + His2B:CG33872 + His2B:CG33902 + 20 more [DRSC21265]?
mean viability with MMS: 3.15e6; viability with MMS, replicate 1: 3.68e6

With mrn (marionette) [DRSC10913], how do the results read?
mean viability with MMS: 3.38e6; viability with MMS, replicate 1: 3.88e6

For p47 [DRSC06046], what does the deposit list?
mean viability with MMS: 2.73e6; viability with MMS, replicate 1: 2.30e6

With sut1 (sugar transporter 1) [DRSC07700], what was measured?
mean viability with MMS: 3.71e6; viability with MMS, replicate 1: 4.08e6

What is on record for CG12868 [DRSC06207]?
mean viability with MMS: 3.74e6; viability with MMS, replicate 1: 3.91e6

How did the screen score CG10459 [DRSC05991]?
mean viability with MMS: 3.52e6; viability with MMS, replicate 1: 3.93e6

Which result is listed for CG10459 [DRSC22092]?
mean viability with MMS: 3.36e6; viability with MMS, replicate 1: 3.83e6

With CG16926 [DRSC06637], what was measured?
mean viability with MMS: 3.62e6; viability with MMS, replicate 1: 4.09e6

With CG43894 [DRSC10123], what does the deposit list?
mean viability with MMS: 3.47e6; viability with MMS, replicate 1: 3.99e6

What is on record for Tl (Toll) [DRSC16885]?
mean viability with MMS: 3.67e6; viability with MMS, replicate 1: 4.22e6

What did the screen give for Glut1 (Glucose transporter 1) [DRSC07927]?
mean viability with MMS: 3.41e6; viability with MMS, replicate 1: 3.87e6

Which result is listed for Glut1 (Glucose transporter 1) [DRSC08662]?
mean viability with MMS: 3.70e6; viability with MMS, replicate 1: 4.28e6

With CG33454 [DRSC22914], what was measured?
mean viability with MMS: 3.59e6; viability with MMS, replicate 1: 4.01e6

With Tom20 (Translocase of outer membrane 20) [DRSC10899], what was measured?
mean viability with MMS: 3.74e6; viability with MMS, replicate 1: 4.22e6

How did the screen score CG6583 [DRSC02972]?
mean viability with MMS: 3.55e6; viability with MMS, replicate 1: 4.08e6

With CG3088 [DRSC10352], how do the results read?
mean viability with MMS: 3.43e6; viability with MMS, replicate 1: 3.92e6

With Drsl6 (Drosomycin-like 6) [DRSC08161], what was measured?
mean viability with MMS: 3.66e6; viability with MMS, replicate 1: 4.14e6
